Experimental data from paper doi:10.1101/2024.10.25.620210.

T1: stλP8 (cTP8-2xStrep-HA-TurboID-A10 linker-PAP8) (Arabidopsis thaliana) (UniProt Q9XI19)
T1 sequence: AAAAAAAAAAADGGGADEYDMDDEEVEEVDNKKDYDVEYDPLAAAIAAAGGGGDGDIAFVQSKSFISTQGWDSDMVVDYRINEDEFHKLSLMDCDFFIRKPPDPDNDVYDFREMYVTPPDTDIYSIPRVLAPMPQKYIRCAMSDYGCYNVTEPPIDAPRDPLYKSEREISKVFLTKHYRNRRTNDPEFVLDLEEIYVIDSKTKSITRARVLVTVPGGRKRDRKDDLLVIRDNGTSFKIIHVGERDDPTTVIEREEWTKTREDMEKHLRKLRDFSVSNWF

T2: sP8 (cTP8-2xStrep-PAP8) (Arabidopsis thaliana) (UniProt Q9XI19)
T2 sequence: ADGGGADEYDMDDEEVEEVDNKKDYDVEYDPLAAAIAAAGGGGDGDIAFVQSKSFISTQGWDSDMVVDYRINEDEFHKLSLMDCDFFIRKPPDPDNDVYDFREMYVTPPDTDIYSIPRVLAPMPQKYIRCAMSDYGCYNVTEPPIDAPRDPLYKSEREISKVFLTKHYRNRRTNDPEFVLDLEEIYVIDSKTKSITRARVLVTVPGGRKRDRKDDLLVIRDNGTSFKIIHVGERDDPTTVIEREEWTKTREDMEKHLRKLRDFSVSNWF

B1: PEP core subunit β′ of Arabidopsis thaliana (protein, UniProt P56763 1-680)
chain: MIDRYKHQQLRIGLVSPQQISAWATKIIPNGEIVGEVTKPYTFHYKTNKPEKDGLFCERIFGPIKSGICACGNYRVIGDEKEDPKFCEQCGVEFVDSRIRRYQMGYIKLTCPVTHVWYLKRLPSYIANLLDKPLKELEGLVYCDFSFARPITKKPTFLRLRGSFEYEIQSWKYSIPLFFTTQGFDIFRNREISTGAGAIREQLADLDLRIIIENSLVEWKQLGEEGPTGNEWEDRKIVRRKDFLVRRMELAKHFIRTNIEPEWMVLCLLPVLPPELRPIIQIEGGKLMSSDINELYRRVIYRNNTLTDLLTTSRSTPGELVMCQEKLVQEAVDTLLDNGIRGQPMRDGHNKVYKSFSDVIEGKEGRFRETLLGKRVDYSGRSVIVVGPSLSLHRCGLPREIAIELFQTFVIRGLIRQHLASNIGVAKSQIREKKPIVWEILQEVMQGHPVLLNRAPTLHRLGIQSFQPILVEGRTICLHPLVCKGFNADFDGDQMAVHVPLSLEAQAEARLLMFSHMNLLSPAIGDPISVPTQDMLIGLYVLTSGTRRGICANRYNPCNRKNYQNERIYETNYKYTKEPFFCNSYDAIGAYRQKKINLDSPLWLRWQLDQRVIASREVPIEVHYESFGNYHEIYAHYLIVRSVKKENFCIYIRTTVGHISFYREIEEAIQGFSQACSYDT
B2: FLN2 of Arabidopsis thaliana (protein, UniProt F4I0K2 45-614)
chain: AAGRRKLSESAPLEEEGNDGNGAVVGKKPSKSVKRTTKKKVVVKDEPLEEISEFLVDNDDVLDKESIVSALKPKKTRTRKKAAAASSDVEEVKTEKKVRRKRTVKKDKDVEDDLATIMDAEVSDVEEALAVESTDTESEEEEIDLSKHEGEDISHTYGWPPLVCCFGSAQHAFVPSGRPANRLLDYELHERMRDAKWAPEKYIRAPGGCAGGVAIALASLGGKVAFMGKLGADDYGQAMLYYLNVCKVQTRSVKIDGKRVTACSTMKISKRGRLKSTCIKPCAEDSLSKSEINVDVLKEAKMFYFSTHSLLDKKMMSTTIQAIKISKQLGNVIFYDLNLPLPLWHSSEETKSFIQEVWNLADVIEITKQELEFLCGIEPTEEFDTENNDISKFVHYPPETVEQLWHENLKVLFVTNGTSKIHYYTKEHNGAVSGMEDVPITPFTRDMSASGDGIVAGLIRMLTVQPDLMNNKGYLERTARYAIECGIIDQWLLAQTRGYPPKDDMEEEEDDEEEDEVESDPNGIRSITEKEYRTSKPYDEPDGPYVMKPVEEREYKKLELVGSMFEDGSL
B3: PEP core subunit α of Arabidopsis thaliana (protein, UniProt P56762 1-329)
chain: MVREKVKVSTRTLQWKCVESKRDSKRLYYGRFILSPLMKGQADTIGIAMRRALLGEIEGTCITRAKSENIPHDYSNIAGIQESVHEILMNLNEIVLRSNLYGTRNALICVQGPGYITARDIILPPAVEIIDNTQHIATLTEPIDLCIELKIERNRGYSLKMSNNFEDRSYPIDAVFMPVENANHSIHSYGNGNEKQEILFLEIWTNGSLTPKEALHQASRNLINLFIPFLHVEEETFYLENNQHQVTLPFFPFHNRLVNLRKKKKTKELAFQYIFIDQLELPPRIYNCLKKSNIHTLLDLLNNSQEDLIKIEHFHVEDVKKILDILEKK
B4: DJ1C (protein, UniProt Q8VY09 61-472)
chain: SSMSPGMVTTLDSDVGVGSSATTKKVLVPIGYGTEEIEAVVLVDVLRRAGADVTVASVEQKLEVEGSSGTRLLADVLISKCADQVYDLVALPGGMPGAVRLRDCEILEKIMKRQAEDKRLYGAISMAPAITLLPWGLLTRKRTTGHPAFFGKLPTFWAVKTNIQISGELTTSRGPGTSFQFALSLAEQLFGETTAKSIEEFLLLRDGYQNPKNKEFNSIDWSLDHTPRVLIPVANGSEAVELVSIADVLRRAKVDVTVSSVERSLRITAFQGTKIITDKLIGEAAESSYDLIILPGGHTGSERLQKSKILKKLLREQHESGRIYGATNSSSTVLHKHGLLKEKRTTVYPSESDEPMNQQMIEGAEVVIDGNVITSLGLATVTKFSLAIVSKLFGHARARSVSEGLVHEYPRQ
B5: PEP core subunit β of Arabidopsis thaliana (protein, UniProt P50546 1-1072)
chain: MLGDEKEGTSAIPGFNQIQFEGFYRFIDQGLIEELAKFPKIEDIDHEIEFQLFVETYQLVEPLIKERDAVYESLTYSSELYVSAGLIWKTSRNMQEQRIFIGNIPLMNSLGTSIVNGIYRIVINQILQSPGIYYQSELDHNGISVYTGTIISDWGGRLELEIDKKARIWARVSRKQKISILVLSSAMGLNLREILENVCYPEIFLSFLTDKEKKKIGSKENAILEFYQQFSCVGGDPIFSESLCKELQKKFFHQRCELGRIGRRNINWRLNLNIPQNNIFLLPRDVLAAADHLIGMKFGMGTLDDMNHLKNKRIRSVADLLQDQLGLALARLENVVKGTISGAIRHKLIPTPQNLVTSTPLTTTYESFFGLHPLSQVLDRTNPLTQIVHGRKLSYLGPGGLTGRTANFRIRDIHPSHYGRICPIDTSEGINVGLIGSLSIHARIGDWGSLESPFYELFEKSKKARIRMLFLSPSQDEYYMIAAGNSLALNRGIQEEQAVPARYRQEFLTIAWEEVHLRSIFPFQYFSIGASLIPFIEHNDANRALMSSNMQRQAVPLSRSEKCIVGTGLERQVALDSGVPAIAEHEGKILYTDTEKIVFSGNGDTLSIPLIMYQRSNKNTCMHQKPQVRRGKCIKKGQILADGAATVGGELALGKNILVAYMPWEGYNFEDAVLISECLVYGDIYTSFHIRKYEIQTHVTTQGPERITKEIPHLEGRLLRNLDKNGIVMLGSWVETGDILVGKLTPQVAKESSYAPEDRLLRAILGIQVSTSKETCLKLPIGGRGRVIDVRWVQKKGGSSYNPEIIRVYISQKREIKVGDKVAGRHGNKGIISKILPRQDMPYLQDGRPVDMVFNPLGVPSRMNVGQIFECSLGLAGSLLDRHYRIAPFDERYEQEASRKLVFSELYEASKQTANPWVFEPEYPGKSRIFDGRTGDPFEQPVIIGKPYILKLIHQVDDKIHGRSSGHYALVTQQPLRGRSKQGGQRVGEMEVWALEGFGVAHILQEMLTYKSDHIRARQEVLGTTIIGGTIPKPEDAPESFRLLVRELRSLALELNHFLVSEKNFQINRKEV
B6: PRIN2 of Arabidopsis thaliana (protein, UniProt Q9XIK0 70-179)
chain: AAEYKFPDPIPEFAEAETEKFRDHMLNKLSKRDLFEDSVDEIVGVCTEIFETFLRSEYGGPGTLLVIPFIDMADTLNERELPGGPQAARAAIKWAQDHVDKDWKEWTGTD

Target: T1, stλP8 (cTP8-2xStrep-HA-TurboID-A10 linker-PAP8) (Arabidopsis thaliana)
Assay: affinity purification with mass spectrometry

binding, binds:
B1, B2, B3, B4, B5, B6

Target: T2, sP8 (cTP8-2xStrep-PAP8) (Arabidopsis thaliana)
Assay: affinity purification with mass spectrometry

binding, binds:
B1, B2, B3, B4, B5, B6

Target: stP8 (cTP8-2xStrep-HA-TurboID-PAP8) (Arabidopsis thaliana) (UniProt Q9XI19)
Assay: affinity purification with mass spectrometry

binding, binds:
B1, B2, B3, B4, B5, B6

Target: T1, stλP8 (cTP8-2xStrep-HA-TurboID-A10 linker-PAP8) (Arabidopsis thaliana)
Assay: proximity labelling

binding, binds:
B1, B2, B3, B4, B5, B6

Target: stP8 (cTP8-2xStrep-HA-TurboID-PAP8) (Arabidopsis thaliana) (UniProt Q9XI19)
Assay: proximity labelling

binding, binds:
B1, B2, B3, B4, B5, B6

These are yes or no findings as the source states them, for the method shown. Binding seen in cells or lysates may run through a third protein. These calls come from enrichment with a bait or labelling near it, and not all partners need be listed. For part of these data: Where a sequence is shown, tags or fusion partners need not be part of it.
